The other results are listed elsewhere or left out. These are further read-outs of the screen, such as a control signal, another cell line or another target. No call is given for them. Most of these compounds were active or inconclusive in the main read-out, so they are no random draw. Potencies come from curve fits of mixed quality, noted in brackets.
Experiment: qHTS Assay for Lipid Storage Modulators in Drosophila S3 Cells;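 as to cell number change: cells counted by Cell Tracker Red CMTPX staining in the red channel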
Conditions: BODIPY lipid droplet fluorescence, 18-24 h; for cell number change: measured here: cell count max response, cells fed with added oleic acid
In short: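 Drosophila S3 cells got compounds at several concentrations plus oleic acid (400 uM solution). Laser-scanning cytometry with 488 nm excitation read lipid droplets at 500-530 nm and cells at 575-640 nm. Percent activity was relative to 20 uM Triacsin C.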

[1] = measured here: lipid fluorescence (Fed channel) AC50, cells fed with added oleic acid
[2] = measured here: cell number channel AC50, cells fed with added oleic acid

SMILES	cell number change	AC50 [1]	AC50 [2]
CC(=O)c1ccc(N2CCN(C(=O)CNS(=O)(=O)c3ccc4c(c3)OCCCO4)CC2)c(F)c1	0.314%	–	–
O=C(CSc1nnc(-c2cccnc2)n1-c1ccccc1)NCc1ccc2c(c1)OCO2	–	0.103 µM [rising, full curve, poor fit]	–
COC(=O)c1ccc(COC(=O)c2cccnc2Cl)cc1	3.85%	0.0058 µM [rising, full curve, poor fit]	–
CCCCCC(=O)O[C@]1(C(C)=O)CC[C@H]2[C@@H]3CCC4=CC(=O)CC[C@]4(C)[C@H]3CC[C@@]21C	1.97%	2.06 µM [rising, partial curve]	–
CCC(NC(=O)C(C)NC)C(=O)N1CCCC1C(=O)NC1CCCc2ccccc21 (configuration not stated)	-21.1%	–	–
COc1cc(C2NC(=O)NC(c3ccccc3)=C2C(C)=O)c(Cl)cc1OCC(=O)O (configuration not stated)	16.6%	–	6.51 µM [rising, single point]
Cc1noc(C)c1/C=N/Nc1ccccn1	50.3%	0.184 µM [rising, full curve, poor fit]	29.1 µM [rising, partial curve, poor fit]
CCN(CC)c1ccc(-c2nn3c(-c4n[nH]c5c4CCC5)nnc3s2)cc1	-32.4%	0.13 µM [rising, full curve, poor fit]	11.6 µM [falling, partial curve]
COc1ccc(C(=O)CSc2nccn2C)cc1	–	4.61 µM [rising, partial curve]	–
C=CCOc1ccc(C(=O)c2ccccc2)c(OCC(=O)NC2(C#N)CCCC2)c1	-16.2%	0.651 µM [rising, full curve]	–
O=C(CSc1nnc(Cc2cccs2)n1C1CCCCC1)N1CCN(C(=O)c2ccco2)CC1	29.5%	3.26 µM [rising, single point]	–
CN(C)S(=O)(=O)c1ccc(Cl)c(NC(=O)COC(=O)CCSc2ccccc2)c1	13.9%	0.116 µM [rising, full curve, poor fit]	–
CC(=O)Oc1ccc(N(C(C)=O)S(=O)(=O)c2ccc(C)cc2C)c2ccccc12	10.2%	23.1 µM [rising, single point]	–
O=C(CN1C(=O)c2ccccc2C1=O)N1CCN(c2nnc(-c3ccccc3)c3ccccc23)CC1	–	4.11 µM [rising, partial curve]	2.31 µM [rising, partial curve]
NC(=O)CN1CCCC1c1ccc2c(c1)OCCO2 (configuration not stated)	-33.3%	6.51 µM [falling, single point]	29.1 µM [falling, partial curve, poor fit]
Cc1ccc(Cn2nc(C)c(NC(=O)c3cc(-c4ccc5c(c4)OCO5)on3)c2C)cc1	-66.1%	7.31 µM [falling, partial curve]	16.4 µM [falling, single point]
Oc1cc2c(cc1O)CN(C(=S)NCCc1ccc(Cl)cc1)CCC2	-46.1%	29.1 µM [falling, single point]	25.9 µM [falling, single point]
CCCN(CC(=O)Nc1ccccc1C)C(=O)COc1c(Cl)cccc1Cl	–	29.1 µM [falling, single point]	3.66 µM [falling, partial curve]
CN(C)S(=O)(=O)c1ccc(NC=O)cc1	3.12%	29.1 µM [falling, single point]	–

SMILES	cell number change	AC50 [1]	AC50 [2]
O=C(Nc1nc2ccccc2s1)C1c2ccccc2Oc2ccccc21	7.89%	2.59 µM [falling, partial curve, poor fit]	–
O=C1CCC(=O)N1Cc1c(Cl)cccc1Cl	31.5%	20.6 µM [rising, partial curve]	0.00411 µM [rising, full curve, poor fit]
Cn1nnc2cc(C(=O)NC3CCCCC3)ccc21	8.86%	–	–
O=S(=O)(c1ccc(C2CCCCC2)cc1)N1CCOCC1	-18%	16.4 µM [rising, single point]	–
COc1cc(Cl)c(C)cc1NC(=O)Cc1ccc(OC)c(OC)c1	2.15%	3.26 µM [falling, partial curve]	2.06 µM [falling, partial curve]
O=C(CN(c1cccc(C(F)(F)F)c1)S(=O)(=O)c1ccc(Cl)c([N+](=O)[O-])c1)NCc1ccccc1	20.5%	10.3 µM [falling, partial curve, poor fit]	3.26 µM [rising, single point]
O=C1Nc2ccccc2S/C1=C/Nc1cccc(Cl)c1	-14.6%	0.116 µM [rising, full curve, poor fit]	0.517 µM [rising, single point]
C/C(=N\O)c1ccc2c3ccccc3n(C)c2c1	-20.4%	29.1 µM [falling, single point]	–
COC(=O)c1ccccc1OCCN1CCCCCC1	-36.7%	32.6 µM [falling, single point]	29.1 µM [falling, single point]
Cc1ccc(NC(=O)COC(=O)c2ccc3c(c2)NC(=O)C2CCCN32)cc1C (configuration not stated)	47.7%	29.1 µM [rising, single point]	29.1 µM [rising, single point]
CCSC(=S)Nc1c(C)n(C)n(-c2ccccc2)c1=O	-26.7%	23.1 µM [falling, single point]	–
N#C/C(=C/c1ccc(N2CCOCC2)o1)c1nc2ccccc2[nH]1	-101%	16.4 µM [falling, partial curve]	20.6 µM [falling, single point]
CCc1ccc2nc(N3CCN(C(=O)C(C)(C)C)CC3)sc2c1	-14.4%	–	–
CCn1nnnc1SCC(=O)N1N=C(c2cccs2)CC1c1cccs1 (configuration not stated)	-25%	6.51 µM [falling, single point]	–
COC(=O)c1c(NC(=O)CN2C(=O)NC3(CCc4ccccc4C3)C2=O)sc2c1CCCCC2 (configuration not stated)	29.7%	5.8 µM [rising, partial curve]	–
NNC(=O)c1ccc2ccccc2n1	-14.5%	–	–
COc1ccc(CNC(=O)CNC(=O)[C@@H]2Cc3ccccc3CN2)cc1	2.83%	–	–
CCCCCC1CC(CC(=O)Nc2ccc([N+](=O)[O-])cc2)C(=O)O1 (configuration not stated)	-33.2%	18.4 µM [falling, partial curve]	23.1 µM [falling, single point]
CC(c1ccccc1)C1CC(=O)N(c2ccc(C(=O)O)cc2)C1=O (configuration not stated)	-3.7%	–	–

Exported with each value named: 4 of the compounds above
O=C(CSc1nnc(Cc2cccs2)n1C1CCCCC1)N1CCN(C(=O)c2ccco2)CC1
  cell number change: 29.5%; AC50 [1]: 3.26 µM [rising, single point]
COc1cc(Cl)c(C)cc1NC(=O)Cc1ccc(OC)c(OC)c1
  cell number change: 2.15%; AC50 [1]: 3.26 µM [falling, partial curve]; AC50 [2]: 2.06 µM [falling, partial curve]
O=C(CN(c1cccc(C(F)(F)F)c1)S(=O)(=O)c1ccc(Cl)c([N+](=O)[O-])c1)NCc1ccccc1
  cell number change: 20.5%; AC50 [1]: 10.3 µM [falling, partial curve, poor fit]; AC50 [2]: 3.26 µM [rising, single point]
CCn1nnnc1SCC(=O)N1N=C(c2cccs2)CC1c1cccs1 (configuration not stated)
  cell number change: -25%; AC50 [1]: 6.51 µM [falling, single point]

The listing continues.

SMILES	cell number change	AC50 [1]	AC50 [2]
CCOc1ccc2c(c1)c1nnc(SCC(=O)NC3CC3)nc1n2C	30.9%	–	–
C/C(=N\NC(=O)Cc1ccc([N+](=O)[O-])cc1)c1cccnc1	7.43%	–	2.59 µM [rising, partial curve, poor fit]
CC(NC(=O)c1ccccc1Cl)C(=O)N1CCN(Cc2ccc3c(c2)OCO3)CC1 (configuration not stated)	-19.9%	10.3 µM [falling, single point]	–
COc1ccc(C(C(=O)NCc2ccccc2)N(Cc2ccco2)C(=O)c2snc(C(N)=O)c2N)cc1OC (configuration not stated)	-10.7%	3.66 µM [falling, partial curve]	–
COc1ccc(NC(=O)CN2CCC(C(=O)c3ccc(C)cc3)CC2)c(OC)c1	13.9%	29.1 µM [rising, single point]	–
O=C(CCC(=O)N1CCN(c2ccccc2F)CC1)N1CCN(c2ccc(F)cc2)CC1	0.275%	29.1 µM [rising, single point]	–
COc1ccc(SCCN2CC[C@@H](O)CCC2=O)cc1	1.81%	29.1 µM [rising, single point]	–
CCOC(=O)Cc1csc(NC(=O)c2sc3nc4cc(C)ccc4cc3c2N)n1	-28.4%	23.1 µM [falling, partial curve]	–
Cc1ccc(N(C)S(=O)(=O)c2ccc(-c3cc(C)no3)s2)cc1	18.2%	2.31 µM [rising, single point]	–
O=C1OC(N2CCN(c3ccccn3)CC2)c2ccccc21 (configuration not stated)	-89.8%	29.1 µM [falling, single point]	29.1 µM [falling, single point]
COCCCNC(=O)C1CCC(CNS(=O)(=O)c2ccc(Cl)cc2)CC1 (configuration not stated)	-56.6%	–	29.1 µM [falling, single point]
Cc1ccc(S(=O)(=O)N(CC(=O)NCc2ccco2)Cc2ccccc2F)cc1	–	0.0058 µM [falling, full curve, poor fit]	6.51 µM [rising, single point]
C=CCSC1=C(C#N)C(c2ccccc2OC)CC(=O)N1 (configuration not stated)	-11.5%	2.06 µM [rising, full curve, poor fit]	–
Clc1ncnc2scc(C3COc4ccccc4O3)c12 (configuration not stated)	-44.7%	25.9 µM [falling, partial curve]	23.1 µM [falling, partial curve]
COCc1nnc(NC(=O)c2ccc(S(=O)(=O)N3CCCC3)cc2)o1	-35.6%	–	35.5 µM [falling, single point]
CCOc1ccc(C(C)=O)cc1COC(=O)C1=COCCO1	-30.5%	–	2.91 µM [falling, full curve, poor fit]
CCOc1nc(-c2ccc(Cl)cc2Cl)ccc1C#N	–	0.82 µM [rising, single point]	2.59 µM [rising, partial curve]
OC(COc1ccccc1)CN1CCCCCC1 (configuration not stated)	5.63%	–	1.46 µM [rising, partial curve, poor fit]
